Reference: paper PMC3988887
No constants are given. Whether binding was seen depends on the method and setting. Some results given as binding are weak or reduced against the parent protein; the word gives no strength.

Target: Cnn fragment Q403-H608 containing the WT PReM domain (yeast two-hybrid bait and prey) (Drosophila melanogaster) (UniProt P54623)
Assay: two-hybrid; baits and preys both Cnn Q403-H608 (WT, LZA or 10A); pPC86-AN and pPC97-AN vectors, yeast strains Y8800 and Y8930; growth on media selecting for an interaction

B1: Cnn fragment Q403-H608 containing the WT PReM domain (yeast two-hybrid bait and prey) (domain or fragment, UniProt P54623-2 403-608)
chain: QLQTEVKKKTANLQNLVNKELWEKNREVERLTKLLANQQKTLPQISEESAGEADLQQSFTEAEYMRALERNKLLQRKVDVLFQRLADDQQNSAVIGQLRLELQQARTEVETADKWRLECVDVCSVLTNRLEELAGFLNSLLKHKDVLGVLAADRRNAMRKAVDRSLDLSKSLNMTLNITATSLADQSLAQLCNLSEILYTEGDASH
B1 was tested. Which binding did it give?
Its binding is “binds”.
